These are yes or no findings as the source states them, for the method shown. For some assays here: In cells and extracts the contact can be indirect. Some results given as binding are weak or reduced against the parent protein; the word gives no strength. For some assays here: Where a sequence is shown, tags or fusion partners need not be part of it.

In experiment [1] the target is T1, OsNEK6 full length in pGBKT7 (bait) (rice (Oryza sativa)) (UniProt Q6YY75).
T1 sequence: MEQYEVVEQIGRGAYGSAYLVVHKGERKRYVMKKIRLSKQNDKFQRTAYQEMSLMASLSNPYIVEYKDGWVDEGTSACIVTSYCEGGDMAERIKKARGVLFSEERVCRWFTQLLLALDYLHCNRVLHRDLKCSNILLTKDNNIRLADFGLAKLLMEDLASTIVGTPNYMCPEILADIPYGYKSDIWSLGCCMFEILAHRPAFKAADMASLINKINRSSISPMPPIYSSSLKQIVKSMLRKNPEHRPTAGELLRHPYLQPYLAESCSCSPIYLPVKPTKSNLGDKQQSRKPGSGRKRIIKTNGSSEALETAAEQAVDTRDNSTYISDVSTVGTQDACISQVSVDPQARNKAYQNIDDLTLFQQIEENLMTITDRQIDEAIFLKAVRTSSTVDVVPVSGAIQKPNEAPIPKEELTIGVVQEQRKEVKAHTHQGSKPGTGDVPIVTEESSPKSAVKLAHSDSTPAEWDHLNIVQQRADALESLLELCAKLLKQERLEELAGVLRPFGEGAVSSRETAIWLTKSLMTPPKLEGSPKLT
Put plainly: two-hybrid; pairwise co-transformation of pGADT7 and pGBKT7 constructs into yeast strain Y2H Gold; SD/-Trp/-Leu, then SD/-Ade/-His/-Trp/-Leu/X-alpha-Gal plates for 3-5 days.

Experiment [2] concerns the target T2, OsNEK6-cYFP (rice (Oryza sativa)) (UniProt Q6YY75).
T2 sequence: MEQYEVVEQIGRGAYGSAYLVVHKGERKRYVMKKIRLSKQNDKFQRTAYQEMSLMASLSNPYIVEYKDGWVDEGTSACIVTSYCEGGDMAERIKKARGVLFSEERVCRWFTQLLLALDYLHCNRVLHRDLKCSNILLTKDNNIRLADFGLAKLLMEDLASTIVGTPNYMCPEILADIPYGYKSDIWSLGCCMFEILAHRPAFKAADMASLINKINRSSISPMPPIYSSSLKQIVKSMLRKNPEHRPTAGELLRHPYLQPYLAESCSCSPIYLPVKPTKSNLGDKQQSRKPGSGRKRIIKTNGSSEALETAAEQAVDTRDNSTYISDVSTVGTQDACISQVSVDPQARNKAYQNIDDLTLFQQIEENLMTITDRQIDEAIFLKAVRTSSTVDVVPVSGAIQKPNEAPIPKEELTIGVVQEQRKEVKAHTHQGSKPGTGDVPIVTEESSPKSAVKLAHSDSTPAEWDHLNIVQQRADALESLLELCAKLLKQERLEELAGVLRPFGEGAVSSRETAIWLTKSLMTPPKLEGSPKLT
In words: split reporter; BiFC; pSAT6-NYFP and pSAT6-CYFP constructs transiently expressed in rice protoplasts via PEG transformation for 2 days; confocal microscopy.

B1: OsDi19-3 full length in pGADT7 (prey) (protein, UniProt Q5QMP3 1-246)
chain: MDSEHWISSLAAAKRFYAAQLGHVDDMAGIGMEEVEMEMEDDGEGMELELEMQLEEATWPDVACPYCYEDHDIASLCAHLEEDHPYEPHTSPCPICFEKITRDMLNHITMQHGYLFKSGRRMRRFDIPESQALSLLSRDLRDAQLQALLGGGHRQRRSNTTATNISADPLLSSFGLGFSTLDSEERSKAPVPIPDDTSIHKDTPAQPWESRIDSSLTSEEREQKRKQATDRATFVQGLVLSTLFED
In the case of B1, in experiment [1], the binding result is “binds”.

B2: OsDi19-nYFP (protein, UniProt Q5QMP3 1-246)
chain: MDSEHWISSLAAAKRFYAAQLGHVDDMAGIGMEEVEMEMEDDGEGMELELEMQLEEATWPDVACPYCYEDHDIASLCAHLEEDHPYEPHTSPCPICFEKITRDMLNHITMQHGYLFKSGRRMRRFDIPESQALSLLSRDLRDAQLQALLGGGHRQRRSNTTATNISADPLLSSFGLGFSTLDSEERSKAPVPIPDDTSIHKDTPAQPWESRIDSSLTSEEREQKRKQATDRATFVQGLVLSTLFED
As to B2, the binding entry in experiment [2] is listed as “binds”.

The values above are taken from publication PMC12115221.
